Measurements published in publication PMC7819943, “Rice protein-binding microarrays: a tool to detect cis-acting elements near promoter regions in rice”.
The list shows a part of the results.

What follows are sequences tested against T1, OsSMF1 (Oryza sativa, UniProt Q6ZLB0 1-436) (assay: protein-binding microarray (RPBM); PBS, 2% BSA, 51.3 ng/ul salmon testes DNA, 50 uM zinc acetate, 200 nM TF, 25 C, 1 h; high values mean tight binding). Details: protein: recombinant; tags: N-terminal polyhistidine and DsRed monomer fusion (pET32a); chain copies: 2; label: CyDye5-dUTP incorporated in the synthesized complementary strand; 3' TTTTT single-stranded linker to array surface; dsDNA, one strand shown.
T1 sequence: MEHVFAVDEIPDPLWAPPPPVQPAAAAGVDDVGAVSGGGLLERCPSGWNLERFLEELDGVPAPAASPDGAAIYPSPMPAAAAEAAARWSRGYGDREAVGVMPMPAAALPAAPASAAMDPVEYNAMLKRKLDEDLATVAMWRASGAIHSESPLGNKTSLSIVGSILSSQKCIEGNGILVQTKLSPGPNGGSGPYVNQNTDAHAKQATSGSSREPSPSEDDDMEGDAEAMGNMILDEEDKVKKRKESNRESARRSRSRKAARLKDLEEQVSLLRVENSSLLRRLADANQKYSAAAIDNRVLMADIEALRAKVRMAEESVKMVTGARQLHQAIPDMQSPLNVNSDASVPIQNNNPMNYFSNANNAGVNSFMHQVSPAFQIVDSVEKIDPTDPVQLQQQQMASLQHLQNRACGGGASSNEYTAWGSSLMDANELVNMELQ
Procedure, shortened: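 Ni–NTA purification followed expression in E. coli BL21-CodonPlus of transcription factors fused N-terminally to a polyhistidine tag and DsRed. At 200 nM in PBS with 2% BSA, salmon testes DNA and 50 µM zinc acetate, the protein was incubated for 1 h at 25 °C with a custom Agilent array that had been primer-extended with Cy5-dUTP and blocked with 2% BSA. After washing, the array was read on an Axon 4000B scanner. The binding signal is per-feature fluorescence intensity in arbitrary units.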

| Sequence | binding signal |
| --- | --- |
| GCGCTCCCGCAAGAGGCCCTTGATGATGTCGTCGATGGCACGGAGTCACCTAGTGCAG | 4270 fluorescence intensity (a.u.) |
| TACGCCGTTGCTTATAAAAGGCCTTGGCCTTGTGTCACATCGGAGTCACCTAGTGCAG | 3170 fluorescence intensity (a.u.) |
| CCGCCACGAGAGAGCTCTCTCCCACTTCTTCCTTCCTGCGCGGAGTCACCTAGTGCAG | 31700 fluorescence intensity (a.u.) |
| GAGGACGGCCTCGGCGGAGAGGATGGAGGTGACGAGGAGCCGGAGTCACCTAGTGCAG | 3630 fluorescence intensity (a.u.) |
| TGCAGTTTAGAACGTGACATAACATAGATATTTAATGCTCCGGAGTCACCTAGTGCAG | 4110 fluorescence intensity (a.u.) |
| CCTCTGCCTCTTGGGGTCGCCGCCACGCCAACTGGAGTCACGGAGTCACCTAGTGCAG | 5090 fluorescence intensity (a.u.) |
| TCCTCACCGCACGCCACACACTGACTCCATACGCACAAGGCGGAGTCACCTAGTGCAG | 4090 fluorescence intensity (a.u.) |
| AATTCTTGGAATCTGATGGGATTCCATCCCCGAGTGACAACGGAGTCACCTAGTGCAG | 13500 fluorescence intensity (a.u.) |
| GAAATTGATGAGTGGGTCCCACGTGTAGTTGAGCCAATCACGGAGTCACCTAGTGCAG | 7970 fluorescence intensity (a.u.) |
| GCAGTGGCTAAGCTTAAGCTCAGGTATGATGACTCGTTGGCGGAGTCACCTAGTGCAG | 3610 fluorescence intensity (a.u.) |
| GATCACCATTCTGGCTTTAATGGAAGCCACTTTCATCACCCGGAGTCACCTAGTGCAG | 3460 fluorescence intensity (a.u.) |
| ATTTTGCAGCCATACATGACACAACACATTCGAGTCTTCGCGGAGTCACCTAGTGCAG | 3820 fluorescence intensity (a.u.) |
| TCACGCCGGCGAGACGGCGTCACGGTGCCACGGCGACGGCCGGAGTCACCTAGTGCAG | 4780 fluorescence intensity (a.u.) |
| AATCAACACGGGCCGATGGGCCGATTGTATCGGTACCCGTCGGAGTCACCTAGTGCAG | 3450 fluorescence intensity (a.u.) |
| CCGCGCCCTCTCCCCTCGCCGCCCTCTCTCACGCATCCCCCGGAGTCACCTAGTGCAG | 4540 fluorescence intensity (a.u.) |
| GCTGAGTTGCATGAGTAAGACCCCACGCGCACGTCATTTGCGGAGTCACCTAGTGCAG | 9720 fluorescence intensity (a.u.) |
| CAACAACACAGCTACTACTCGATCCCCAACGTGGTATAAGCGGAGTCACCTAGTGCAG | 3700 fluorescence intensity (a.u.) |
| CTGTTGTGCTGACGCTCAATACTATTTCTCACTGGAATGTCGGAGTCACCTAGTGCAG | 3370 fluorescence intensity (a.u.) |
| AAGACAAAATGATCAATAGCAAGGCTTTGTGAAAAGTTAGCGGAGTCACCTAGTGCAG | 12300 fluorescence intensity (a.u.) |
| GGACGTGATTCAAACTCGCGTGGGTGATCGAAAGTGGACTCGGAGTCACCTAGTGCAG | 4640 fluorescence intensity (a.u.) |
| CAGCCGGTGGGCCTGCATGACAAGTGGGCCCAGTGACACTCGGAGTCACCTAGTGCAG | 3320 fluorescence intensity (a.u.) |

Given with each value named: part of the list above
CAACAACACAGCTACTACTCGATCCCCAACGTGGTATAAGCGGAGTCACCTAGTGCAG
  binding signal: 3700 fluorescence intensity (a.u.)
CTGTTGTGCTGACGCTCAATACTATTTCTCACTGGAATGTCGGAGTCACCTAGTGCAG
  binding signal: 3370 fluorescence intensity (a.u.)

Following part:

| Sequence | binding signal |
| --- | --- |
| CCCGAGCCCTCGACACCAACCCCGTCAGATGTGAAGCCGACGGAGTCACCTAGTGCAG | 3980 fluorescence intensity (a.u.) |
| TAGGCCGCCCCTCTTGTGGTCTCTGAGTCACTTGCAATATCGGAGTCACCTAGTGCAG | 5760 fluorescence intensity (a.u.) |
| ACAGCCGGTCGAGATGAGGCCTCATCCCCACAAAGTATTTCGGAGTCACCTAGTGCAG | 3530 fluorescence intensity (a.u.) |
| CACCATTCTCCTCTTGCGATTTCACCACCACCGCCACGGCCGGAGTCACCTAGTGCAG | 3480 fluorescence intensity (a.u.) |
| CACATGCTATAGTGACGTACCATACGTTGAAACAACCACTCGGAGTCACCTAGTGCAG | 3810 fluorescence intensity (a.u.) |
| CACCGCAACAGTTTCACTAATCACCAGTCATTACACTCTGCGGAGTCACCTAGTGCAG | 3470 fluorescence intensity (a.u.) |
| CGGCGAAGTAGCAAGGGTTGAGTCTGCATCATCAACCAATCGGAGTCACCTAGTGCAG | 3370 fluorescence intensity (a.u.) |
| GCTACATGGTTATCACGCAGACCATTTACATGCACCAACGCGGAGTCACCTAGTGCAG | 4200 fluorescence intensity (a.u.) |
| AATCCTAACCATTCATTCATTTCCCAATCCCAATTCCATTCGGAGTCACCTAGTGCAG | 23000 fluorescence intensity (a.u.) |
| AATAGTGTAGTATGTAACTATTATATGAATGAGCTATTAACGGAGTCACCTAGTGCAG | 20900 fluorescence intensity (a.u.) |
| ACAAGTACTACACGCGAATGTATTTCAATAGAAATTTATCCGGAGTCACCTAGTGCAG | 35600 fluorescence intensity (a.u.) |
| AGAATATTACTTGCCTTCCACACCCTTAATCACATGCACGCGGAGTCACCTAGTGCAG | 3610 fluorescence intensity (a.u.) |
| GGGCGGAGCGGGGCGGAGGGAGAGGAGGGAGAGGAGGGAGCGGAGTCACCTAGTGCAG | 4920 fluorescence intensity (a.u.) |
| ATATATATATATTACATGATGTCGTCAGTCTTGTCAACTGCGGAGTCACCTAGTGCAG | 4260 fluorescence intensity (a.u.) |
| AGCCCACAACAGCAGAACAACTCACCCGTGCCCTCCACCACGGAGTCACCTAGTGCAG | 3220 fluorescence intensity (a.u.) |
| GGGCATGTAAAATTTCTTTCTACTGGGATAACTCTTCTTGCGGAGTCACCTAGTGCAG | 3480 fluorescence intensity (a.u.) |
| GTGCGGACGTGTTGTAAACACCTGTGTTTATACTGTATTTCGGAGTCACCTAGTGCAG | 3660 fluorescence intensity (a.u.) |
| ATGACTAACGTAATGTAAGTGACCATGCATATATGCATGCCGGAGTCACCTAGTGCAG | 3930 fluorescence intensity (a.u.) |
| ATTGTTGAATCCAGTCACACCAAGCTTGAGGGCTTTGGATCGGAGTCACCTAGTGCAG | 4640 fluorescence intensity (a.u.) |
| AAGGTAGTATCAGCCCAAGTCCAGCCTGGCATGATACTGGCGGAGTCACCTAGTGCAG | 3500 fluorescence intensity (a.u.) |
| CTTACTGTGCAACTGCACAAATTACAATGACTAGTAGTTGCGGAGTCACCTAGTGCAG | 3670 fluorescence intensity (a.u.) |
